Reference: paper PMC11166458, “Caskin2 is a novel talin- and Abi1-binding protein that promotes cell motility” (Journal of Cell Science, 2024)

Sequences of proteins named here, by UniProt entry; tags and fusion partners are left off.
UniProt Q8WXE0: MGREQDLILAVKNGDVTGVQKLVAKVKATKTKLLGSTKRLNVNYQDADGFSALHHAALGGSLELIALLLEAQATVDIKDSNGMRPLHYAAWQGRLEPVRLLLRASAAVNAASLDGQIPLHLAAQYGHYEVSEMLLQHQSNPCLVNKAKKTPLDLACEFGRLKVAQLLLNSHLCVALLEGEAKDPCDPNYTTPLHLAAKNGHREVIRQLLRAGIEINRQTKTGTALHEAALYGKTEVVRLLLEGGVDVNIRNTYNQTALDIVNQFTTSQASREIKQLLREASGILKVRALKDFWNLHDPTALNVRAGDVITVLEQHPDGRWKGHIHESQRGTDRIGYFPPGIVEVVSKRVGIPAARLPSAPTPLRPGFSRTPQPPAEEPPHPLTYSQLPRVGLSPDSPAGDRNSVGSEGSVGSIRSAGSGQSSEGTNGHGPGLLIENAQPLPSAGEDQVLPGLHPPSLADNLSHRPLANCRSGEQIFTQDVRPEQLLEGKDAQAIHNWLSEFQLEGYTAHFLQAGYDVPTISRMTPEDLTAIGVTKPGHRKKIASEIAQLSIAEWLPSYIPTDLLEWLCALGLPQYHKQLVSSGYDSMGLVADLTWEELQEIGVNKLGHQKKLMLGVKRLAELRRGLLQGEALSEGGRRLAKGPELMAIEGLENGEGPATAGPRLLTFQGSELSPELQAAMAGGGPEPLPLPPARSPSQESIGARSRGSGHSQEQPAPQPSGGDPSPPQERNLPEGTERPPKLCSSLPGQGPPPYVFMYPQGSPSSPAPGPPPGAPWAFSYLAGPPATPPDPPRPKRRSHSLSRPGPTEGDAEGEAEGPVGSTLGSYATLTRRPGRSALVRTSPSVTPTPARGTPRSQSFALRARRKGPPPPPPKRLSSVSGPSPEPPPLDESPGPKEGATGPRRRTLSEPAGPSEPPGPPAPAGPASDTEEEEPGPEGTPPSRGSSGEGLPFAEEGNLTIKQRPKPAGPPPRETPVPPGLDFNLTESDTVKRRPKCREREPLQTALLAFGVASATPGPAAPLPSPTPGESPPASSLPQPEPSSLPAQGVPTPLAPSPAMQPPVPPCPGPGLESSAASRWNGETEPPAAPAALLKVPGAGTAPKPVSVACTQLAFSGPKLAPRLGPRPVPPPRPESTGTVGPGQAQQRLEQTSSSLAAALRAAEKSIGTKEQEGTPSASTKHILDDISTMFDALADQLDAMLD

What follows are binders tested against Caskin2-FL–GFP (human) (UniProt Q8WXE0) (assay: affinity purification with mass spectrometry; GFP-Trap of Caskin2-FL–GFP (GFP as control) stably expressed in GE11tetONβ1 cells; label-free quantitation).

binding | Binder
binds | striatin (endogenous, GE11 cells) (protein, UniProt O55106 1-780) MDEQAGPGVFFSNNHPGAGGAKGLGPLAEAAAAGDGAAAAGAARAQYSLPGILHFLQHEWARFEVERAQWEVERAELQAQIAFLQGERKGQENLKKDLVRRIKMLEYALKQERAKYHKLKYGTELNQGDMKPPSYDSDEGNETEVQPQQNSQLMWKQGRQLLRQYLQEVGYTDTILDVKSKRVRALLGFSSDVTDREDDKNQDSVINGTEAEVKETAMIGKSELTDSASVLDNFKFLESAAADVSDEDEDEDTDGRAKSVIDTSTIVRKKALPDTSEDRDTKEALKEFDFLVTSEEGDNESRSAGDGTDWEKEDQCLTPEAWNVDQGVISKLKEQYKKERKGKKGVKRPNRSKLQDMLANLRDVDELPSLQPSVGSPSRPSSSRLPEQELSRADEVEALTFPPSSGKSFIMGADEALESELGLGELAGLTVANEADSLAYDIANNKDALRKTWNPKFTLRSHFDGIRALAFHPIEPVLITASEDHTLKMWNLQKTAPAKKSTSLDVEPIYTFRAHKGPVLCVVMSSNGEQCYSGGTDGRIQSWSTTNPNVDPYDAYDPSVLRGPLLGHTDAVWGLAYSAAHQRLLSCSADGTLRLWNTTEVAPALSVFNDNQELGIPASVDLVSSDPSHMVASFSKGYTSIFNMETQQRVLTLESNVDSTSSSSCQINRVISHPTLPISITAHEDRHIKFYDNNTGKLIHSMVAHLEAVTSLAVDPNGLYLMSGSHDCSIRLWNLESKTCIQEFTAHRKKFEESIHDVAFHPSKCYIASAGADALAKVFV
binds | Ywhag (endogenous, GE11 cells) (protein, UniProt P61982 1-247) MVDREQLVQKARLAEQAERYDDMAAAMKNVTELNEPLSNEERNLLSVAYKNVVGARRSSWRVISSIEQKTSADGNEKKIEMVRAYREKIEKELEAVCQDVLSLLDNYLIKNCSETQYESKVFYLKMKGDYYRYLAEVATGEKRATVVESSEKAYSEAHEISKEHMQPTHPIRLGLALNYSVFYYEIQNAPEQACHLAKTAFDDAIAELDTLNEDSYKDSTLIMQLLRDNLTLWTSDQQDDDGGEGNN
binds | striatin-3 (endogenous, GE11 cells) (protein, UniProt Q9ERG2 1-796) MDELAGGGGGGQGMAAPPRPQQGPGGNLSLPPGANGAPGGGGPPAAEAAGPPAGPELSRPQQYTIPGILHYIQHEWARFEMERAHWEVERAELQARIAFLQGERKGQENLKKDLVRRIKMLEYALKQERAKYHKLKYGTELNQGDLKMPTFESEETKDVEAPPAPQNSQLTWKQGRQLLRQYLQEVGYTDTILDVRSQRVRSLLGLSNSEPNGSVEAKNLEQILNGGESPKQKGQEIKRPPGDVLETFNFLENADDSDEEENDMIEGIPEGKDKLRIHKHKIGNEGLAADLTDDPDTEEALKEFDFLVTAEDGEGAGEARSSGDGTEWDKDDLSPTAEVWDVDQGLISKLKEQYKKERKGKKGVKRVNRTNLCDMITDLGDDELPHIPSGIINQSRSASTRMADHEGARAEEAEPITFPSGGGKSFIMGSDDVLLSVLGLGDLADLTVTNDADYSYDLPANKDAFRKTWNPKYTLRSHFDGVRALAFHPVEPVLVTASEDHTLKLWNLQKTVPAKKSASLDVEPIYTFRAHIGPVLSLAISSNGEQCFSGGIDATIQWWNMPSPNVDPYDTYESNVLAGTLVAHTDAVWGLAYSGIKNQLLSCSADGTIRLWNPQEKLPCVCTYNGDKEHGIPTSVDFIGCDPAHMVTSFNTGSAVIYDLETSQSLVMLSSQVDSGLQSSNHINRVVSHPTLPVTITAHEDRHIKFFDNKTGKMIHSMVAHLDAVTSLAVDPNGIYLMSGSHDCSIRLWNLDSKTCVQEITAHRKKLDESIYDVAFHPSKAYIASAGADALAKVFV

Results are given in words; binding and its absence hold for the method and conditions named. Binding seen in cells or lysates may run through a third protein. These calls come from enrichment with a bait or labelling near it, and not all partners need be listed.
